These results are taken from doi:10.1101/2023.08.14.553183.

This assay addresses T1, SAMD1 full length, expressed in HEK293 cells for ectopic co-immunoprecipitation (UniProt Q6SPF0).
T1 sequence: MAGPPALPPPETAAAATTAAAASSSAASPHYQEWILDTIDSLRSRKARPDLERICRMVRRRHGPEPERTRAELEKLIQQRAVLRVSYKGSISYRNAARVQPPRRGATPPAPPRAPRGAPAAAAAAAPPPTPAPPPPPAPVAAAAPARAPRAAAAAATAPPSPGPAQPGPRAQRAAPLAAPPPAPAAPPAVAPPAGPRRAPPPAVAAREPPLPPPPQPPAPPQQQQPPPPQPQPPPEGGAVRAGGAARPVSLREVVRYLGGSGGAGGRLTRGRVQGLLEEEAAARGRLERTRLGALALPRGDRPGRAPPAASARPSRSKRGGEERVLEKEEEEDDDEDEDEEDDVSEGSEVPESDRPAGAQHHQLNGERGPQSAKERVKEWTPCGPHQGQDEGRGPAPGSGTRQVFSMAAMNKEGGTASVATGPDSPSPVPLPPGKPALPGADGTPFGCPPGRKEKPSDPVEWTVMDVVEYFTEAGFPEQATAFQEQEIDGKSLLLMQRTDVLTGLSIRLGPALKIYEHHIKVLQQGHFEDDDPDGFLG
As to the kind of experiment: co-IP.

No constants are given. Whether binding was seen depends on the method and setting. Binding seen in cells or lysates may run through a third protein. Some binding calls cover weakened binding; strength is not graded here.

B1: F-box only protein 11 (FBXO11) in HEK293 cells (co-immunoprecipitation) (protein, UniProt Q86XK2 1-927)
chain: MNSVRAANRRPRRVSRPRPVQQQQQQPPQQPPPQPPQQQPPQQQPPPPPQQQQQQQPPPPPPPPPPLPQERNNVGERDDDVPADMVAEESGPGAQNSPYQLRRKTLLPKRTACPTKNSMEGASTSTTENFGHRAKRARVSGKSQDLSAAPAEQYLQEKLPDEVVLKIFSYLLEQDLCRAACVCKRFSELANDPILWKRLYMEVFEYTRPMMHPEPGKFYQINPEEYEHPNPWKESFQQLYKGAHVKPGFAEHFYSNPARYKGRENMLYYDTIEDALGGVQEAHFDGLIFVHSGIYTDEWIYIESPITMIGAAPGKVADKVIIENTRDSTFVFMEGSEDAYVGYMTIRFNPDDKSAQHHNAHHCLEITVNCSPIIDHCIIRSTCTVGSAVCVSGQGACPTIKHCNISDCENVGLYITDHAQGIYEDNEISNNALAGIWVKNHGNPIIRRNHIHHGRDVGVFTFDHGMGYFESCNIHRNRIAGFEVKAYANPTVVRCEIHHGQTGGIYVHEKGRGQFIENKIYANNFAGVWITSNSDPTIRGNSIFNGNQGGVYIFGDGRGLIEGNDIYGNALAGIQIRTNSCPIVRHNKIHDGQHGGIYVHEKGQGVIEENEVYSNTLAGVWVTTGSTPVLRRNRIHSGKQVGVYFYDNGHGVLEDNDIYNHMYSGVQIRTGSNPKIRRNKIWGGQNGGILVYNSGLGCIEDNEIFDNAMAGVWIKTDSNPTLRRNKIHDGRDGGICIFNGGRGLLEENDIFRNAQAGVLISTNSHPILRKNRIFDGFAAGIEITNHATATLEGNQIFNNRFGGLFLASGVNVTMKDNKIMNNQDAIEKAVSRGQCLYKISSYTSYPMHDFYRCHTCNTTDRNAICVNCIKKCHQGHDVEFIRHDRFFCDCGAGTLSNPCTLAGEPTHDTDTLYDSAPPIESNTLQHN
On to B1, for which the binding entry is reported as “binds”.
